Laboratory results: PubChem BioAssay AID1259254 (NCATS, 2017)
Aim: 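Finding genes that stop cells copying their DNA twice in one cycle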 (primary screen). Cells: human HCT116 colorectal cancer cells. Reagents: single siRNA against human genes. Time to read-out: 3 days. Detection: 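Nuclei stained with Hoechst and imaged; cell-cycle phase assigned by DNA content; G2 share scaled per plate, non-targeting siRNA 0%, GMNN siRNA 100%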. Scale: G2 robust z-score and G2 cells, % of GMNN control: higher = more G2 cells, more excess DNA replication. Call rule: 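Active siRNAs have a G2 robust z of 5 or more median absolute deviations over the median, which in these data means about 38% or higher of GMNN control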.
The whole screen tested about 59,000 reagents; this is a part drawn at random. Of all reagents, about 1,550 (2.6%) were called active. 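G2 share is only a proxy for re-replication; each gene was hit by three separate siRNAs, and active genes were retested.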 Reagents against one gene are numbered here. Further read-outs or replicates are left out here. The record does not give: the amount of reagent.

BPIFB2 #1 — G2 robust z-score: 0.446; G2 cells, % of GMNN control: 6.11; outcome: inactive
BPIFB2 #2 — G2 robust z-score: -0.0612; G2 cells, % of GMNN control: 2.54; outcome: inactive
BPIFB2 #3 — G2 robust z-score: -0.792; G2 cells, % of GMNN control: -2.6; outcome: inactive
PRAMEF12 #1 — G2 robust z-score: 0.0589; G2 cells, % of GMNN control: 3.38; outcome: inactive
PRAMEF12 #2 — G2 robust z-score: -0.307; G2 cells, % of GMNN control: 0.811; outcome: inactive
PRAMEF12 #3 — G2 robust z-score: -1.3; G2 cells, % of GMNN control: -6.16; outcome: inactive
CDC50A #1 — G2 robust z-score: -0.41; G2 cells, % of GMNN control: 0.0797; outcome: inactive
CDC50A #2 — G2 robust z-score: 0.573; G2 cells, % of GMNN control: 7; outcome: inactive
CDC50A #3 — G2 robust z-score: 0.0651; G2 cells, % of GMNN control: 3.43; outcome: inactive
ATP6V0E2 #1 — G2 robust z-score: 0.939; G2 cells, % of GMNN control: 9.57; outcome: inactive
ATP6V0E2 #2 — G2 robust z-score: 1.71; G2 cells, % of GMNN control: 15; outcome: inactive
ATP6V0E2 #3 — G2 robust z-score: -0.482; G2 cells, % of GMNN control: -0.425; outcome: inactive

Reformatted: entries from further up.
| Gene | siRNA no. | G2 robust z-score | G2 cells, % of GMNN control | outcome |
| --- | --- | --- | --- | --- |
| BPIFB2 | 1 | 0.446 | 6.11 | inactive |
| BPIFB2 | 2 | -0.0612 | 2.54 | inactive |

Next entries:
SLC45A4 #1 — G2 robust z-score: 0.0744; G2 cells, % of GMNN control: 3.49; outcome: inactive
SLC45A4 #2 — G2 robust z-score: -1.19; G2 cells, % of GMNN control: -5.41; outcome: inactive
SLC45A4 #3 — G2 robust z-score: 1.5; G2 cells, % of GMNN control: 13.5; outcome: inactive
KLHL23 #1 — G2 robust z-score: 3.92; G2 cells, % of GMNN control: 30.6; outcome: inactive
KLHL23 #2 — G2 robust z-score: -0.0333; G2 cells, % of GMNN control: 2.73; outcome: inactive
KLHL23 #3 — G2 robust z-score: -0.76; G2 cells, % of GMNN control: -2.38; outcome: inactive
LYPLA1 #1 — G2 robust z-score: -0.497; G2 cells, % of GMNN control: -0.532; outcome: inactive
LYPLA1 #2 — G2 robust z-score: 2.58; G2 cells, % of GMNN control: 21.1; outcome: inactive
LYPLA1 #3 — G2 robust z-score: -0.812; G2 cells, % of GMNN control: -2.75; outcome: inactive
OR4K13 #1 — G2 robust z-score: -0.73; G2 cells, % of GMNN control: -2.17; outcome: inactive
OR4K13 #2 — G2 robust z-score: -0.201; G2 cells, % of GMNN control: 1.55; outcome: inactive
OR4K13 #3 — G2 robust z-score: -0.873; G2 cells, % of GMNN control: -3.18; outcome: inactive
